Test results as given in US20170275356A1.
Results are given in words; binding and its absence hold for the method and conditions named. Some results given as binding are weak or reduced against the parent protein; the word gives no strength.

Sequences of proteins named here, by UniProt entry; tags and fusion partners are left off. A change or cut given only in a name is not applied to a line headed by its entry. Residues count along the entry.
UniProt Q5VWK5, residues 24-353: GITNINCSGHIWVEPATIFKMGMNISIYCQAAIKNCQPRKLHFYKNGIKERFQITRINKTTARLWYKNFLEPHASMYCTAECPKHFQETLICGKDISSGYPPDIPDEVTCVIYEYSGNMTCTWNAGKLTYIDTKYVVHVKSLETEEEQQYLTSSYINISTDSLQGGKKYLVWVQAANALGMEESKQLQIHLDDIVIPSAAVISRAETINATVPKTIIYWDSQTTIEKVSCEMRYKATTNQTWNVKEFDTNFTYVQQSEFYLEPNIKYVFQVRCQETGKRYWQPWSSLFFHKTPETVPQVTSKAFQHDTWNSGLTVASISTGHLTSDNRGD
UniProt P29460: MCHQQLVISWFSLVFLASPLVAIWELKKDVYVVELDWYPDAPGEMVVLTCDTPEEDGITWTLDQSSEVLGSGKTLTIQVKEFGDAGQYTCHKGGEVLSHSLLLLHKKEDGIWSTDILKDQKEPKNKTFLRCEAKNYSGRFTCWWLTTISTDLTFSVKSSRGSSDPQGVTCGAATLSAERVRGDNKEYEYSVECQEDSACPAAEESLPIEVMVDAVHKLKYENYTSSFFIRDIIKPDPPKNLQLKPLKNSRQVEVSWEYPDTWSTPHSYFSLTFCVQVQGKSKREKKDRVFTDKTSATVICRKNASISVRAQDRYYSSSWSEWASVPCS

Biological target: Recombinant human IL-23R/Fc (human) (UniProt Q5VWK5)
Assay: SPR (BIAcore), IL-23R/Fc amine-coupled, IL-23 injected without antibody

binding: binds
Substance: human IL-23 (from UniProt P29460 23-328) (ligand)
